Assay results from PubChem BioAssay AID743255 (National Center for Advancing Translational Sciences (NCATS), 2014).
Hit rate of the full screen: of about 390,000 compounds, about 910 (0.23%) were called active. This list was built around the results that the source calls inconclusive (neither active nor inactive); the mix of calls is not that of the screen. Calls follow the shape of the dose curve; as a rule, active = well fitted inhibition curve with a large enough effect; inconclusive = small, poorly fitted or top-dose-only effect; inactive = no such curve, though single readings can be large or run the other way. Potencies of inconclusive entries are doubtful fits and often do not repeat.

Amino acid sequences for entries named in this document (tags omitted). A change or cut given only in a name is not applied to a line headed by its entry.
UniProt O94782: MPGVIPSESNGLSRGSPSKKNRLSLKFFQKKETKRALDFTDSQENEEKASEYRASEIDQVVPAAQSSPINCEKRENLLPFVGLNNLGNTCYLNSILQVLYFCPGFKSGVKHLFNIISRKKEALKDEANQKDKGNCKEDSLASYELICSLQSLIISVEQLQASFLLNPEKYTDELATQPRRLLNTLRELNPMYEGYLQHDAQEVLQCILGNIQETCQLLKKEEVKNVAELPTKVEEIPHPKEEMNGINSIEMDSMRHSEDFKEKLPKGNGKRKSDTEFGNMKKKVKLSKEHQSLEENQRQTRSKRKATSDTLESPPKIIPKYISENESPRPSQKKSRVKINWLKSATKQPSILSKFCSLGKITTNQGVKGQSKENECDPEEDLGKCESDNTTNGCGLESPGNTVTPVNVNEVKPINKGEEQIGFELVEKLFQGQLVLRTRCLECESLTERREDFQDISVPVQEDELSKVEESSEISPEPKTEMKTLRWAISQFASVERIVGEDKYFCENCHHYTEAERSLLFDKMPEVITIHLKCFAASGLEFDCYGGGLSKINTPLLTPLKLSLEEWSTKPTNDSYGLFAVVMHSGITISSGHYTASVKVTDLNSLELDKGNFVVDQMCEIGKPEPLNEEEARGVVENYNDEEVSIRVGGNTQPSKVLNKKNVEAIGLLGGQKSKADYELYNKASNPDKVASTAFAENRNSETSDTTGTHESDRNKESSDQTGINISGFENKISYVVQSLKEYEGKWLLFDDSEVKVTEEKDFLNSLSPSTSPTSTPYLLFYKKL

What follows are compounds tested against Ubiquitin carboxyl-terminal hydrolase 1 (Homo sapiens) (UniProt O94782) (assay: Inhibitors of USP1/UAF1: Primary Screen). Details: recombinant USP1/UAF1, Ub-Rhodamine cleavage fluorescence; activity change, negative = inhibition: at 57.1 µM (top of the series).
Outline: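 In this screen, compounds sit with the deubiquitinase complex (1nM) for 15 min at room temperature before Ub-Rho is added at 150nM final. Fluorescence rise is then followed for 6 reads every 60 seconds.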
% is scaled to controls: 0 for no effect and ±100 for the full control effect; potency is read from the fitted curve at half-maximal effect.
Also: nearly all actives have a fitted effect of over 60% in size.

Structure (SMILES)	Potency	activity change, negative = inhibition
COc1ccc(C2CC(=O)Oc3c(C(CCN4CCN(c5ccccc5)CC4)c4ccc(N(C)C)cc4)c(OC)cc(OC)c32)cc1 (stereo not given)	inconclusive: 0.398 µM [inhibitor, full curve, poor fit]	
Cc1c(N2C(=O)/C(=C\c3ccc(N(C)C)cc3)N(C)C2=S)c(=O)n(-c2ccccc2)n1C	inconclusive: 22.4 µM [inhibitor, partial curve]	
COc1ccc(OC)c(C2C(C(=O)c3ccco3)=C(O)C(=O)N2CC2CCCO2)c1 (stereo not given)	inconclusive: 7.94 µM [inhibitor, partial curve, poor fit]	
CC(=O)N1CCN(C(=S)NC(=O)c2ccc(S(=O)(=O)N3CCOCC3)cc2)CC1		inactive: -18.3%
O=C(COC(=O)c1ccc(F)c(S(=O)(=O)N2CCOCC2)c1)Nc1ccc2[nH]c(=O)[nH]c2c1	inconclusive: 70.8 µM [inhibitor, partial curve, poor fit]	
CC(C)CCNC(=O)c1onc(CSc2nc3ccccc3[nH]2)c1C(=O)NCCC(C)C	inconclusive: 70.8 µM [inhibitor, partial curve, poor fit]	
Cc1nnc(-c2ccc(N3CCCCCC3)c([N+](=O)[O-])c2)o1		inactive: -0.087%
CCCCCCc1cc2cc(-c3nnc(-c4ccc(C)cc4)o3)c(=O)oc2cc1O	inconclusive: 6.31 µM [inhibitor, full curve, poor fit]	
CC(C)CCNc1nc2c(S(=O)(=O)c3ccc(Br)cc3)nnn2c2ccsc12		inactive: -15.8%
Cn1c(C23CC4CC(CC(C4)C2)C3)n[nH]c1=S		inactive: -2.98%
O=C(Nc1ccc2nc(-c3ccco3)c(-c3ccco3)nc2c1)N1CCCCCC1	active: 31.6 µM	
Cc1cc(C(=O)Nc2cnc3ccccc3c2)ccc1[N+](=O)[O-]	inconclusive: 44.7 µM [inhibitor, partial curve, poor fit]	
Cc1ccc(CNC(=O)C2CCCN(c3nnc(-n4c(C)ccc4C)s3)C2)cc1 (stereo not given)		inactive: -5.93%
O=C(COC(=O)c1cccc(Cl)c1Cl)NC1CCCC1	inconclusive: 0.631 µM [inhibitor, full curve, poor fit]	
CCOC(=O)C1=C(CCc2ccccc2)NC(=O)NC1c1ccc2ccccc2c1 (stereo not given)	inconclusive: 100 µM [inhibitor, partial curve]	
Cc1ccc(S(=O)(=O)N2CCCCC2)cc1NC(=O)COC(=O)C1(C)CC1(Cl)Cl (stereo not given)	inconclusive: 70.8 µM [inhibitor, partial curve, poor fit]	
COc1ccc(/C(O)=C/c2nc3ccccc3n(-c3ccccc3)c2=O)cc1	inconclusive: 2.82 µM [inhibitor, full curve, poor fit]	
Cc1cc(NC(=O)COC(=O)CCCOc2ccc(Cl)cc2C)no1		inactive: 5.47%
COC(=O)c1cnc(N2CCN(c3ccccc3OC)CC2)c2ccccc12	inconclusive: 56.2 µM [inhibitor, partial curve, poor fit]	
Cc1cccn2c(=O)cc(COc3ccc(NC(=O)c4cccc(F)c4)cc3)nc12	inconclusive: 141 µM [inhibitor, partial curve, poor fit]	
COC(C[C@@H](O)C[C@H](O)COCc1ccccc1)OC	inconclusive: 28.2 µM [inhibitor, partial curve]	
Cc1cccc(C(=O)N2CCc3cc(-c4nc(NC(=O)CN5CCCC5)sc4C)ccc32)c1	inconclusive: 1.78 µM [inhibitor, partial curve]	

3 of these compounds in a different format.
COc1ccc(OC)c(C2C(C(=O)c3ccco3)=C(O)C(=O)N2CC2CCCO2)c1 (stereo not given)
  Potency: inconclusive: 7.94 µM [inhibitor, partial curve, poor fit]
O=C(COC(=O)c1ccc(F)c(S(=O)(=O)N2CCOCC2)c1)Nc1ccc2[nH]c(=O)[nH]c2c1
  Potency: inconclusive: 70.8 µM [inhibitor, partial curve, poor fit]
Cc1ccc(CNC(=O)C2CCCN(c3nnc(-n4c(C)ccc4C)s3)C2)cc1 (stereo not given)
  activity change, negative = inhibition: inactive: -5.93%

(list continues)

Structure (SMILES)	Potency	activity change, negative = inhibition
Oc1c(C(c2ccc(Cl)cc2)N2CCCC2)cc(Cl)c2cccnc12 (stereo not given)		inactive: -9.89%
Nc1nc(NCc2ccc(Cl)cc2)nc(NCCO)c1[N+](=O)[O-]	inconclusive: 35.5 µM [inhibitor, single point]	
Cc1ccc(-n2nnnc2CNC(=O)c2ccccc2F)cc1C	inconclusive: 1.12 µM [inhibitor, full curve]	
COc1ccc(S(=O)(=O)CCC(=O)N2c3ccccc3CC2C)cc1 (stereo not given)		inactive: -11.2%
CC(C)(C)OC(=O)CC1(C#N)c2ccccc2C(Br)=CN1C(=O)c1ccccc1 (stereo not given)	inconclusive: 112 µM [inhibitor, partial curve, poor fit]	
O=C(CCN1C(=O)/C(=C/c2ccco2)SC1=S)Nc1ccc(O)cc1C(=O)O	inconclusive: 44.7 µM [inhibitor, partial curve, poor fit]	
COc1cccc(C2=NOC(C(=O)Nc3cc(C)nn3-c3ccccc3)C2)c1OC (stereo not given)		inactive: -17.4%
O=C(NC(Cc1ccccc1)C(=O)O)/C(=C/c1ccc([N+](=O)[O-])cc1)NC(=O)c1ccco1 (stereo not given)	inconclusive: 0.891 µM [inhibitor, full curve, poor fit]	
Cc1ccc(CNC(=O)CCCN2C(=O)c3cccnc3Oc3ccc(Cl)cc32)cc1	inconclusive: 0.316 µM [inhibitor, full curve]	
COc1ccc2cc3c(N)c(C(=O)NCc4ccco4)sc3nc2c1	inconclusive: 39.8 µM [inhibitor, partial curve, poor fit]	
COc1ccc(NC(=O)NCCCN2CCCC2=O)cc1		inactive: -16.1%
CCn1ccc2cc(S(=O)(=O)N3CCCN(C(=O)Nc4ccc(C)c(F)c4)CC3)ccc21		inactive: -24.5%
Cc1ccc(C(=O)Nc2ccc(Nc3ccccc3)cc2)cc1Br	inconclusive: 35.5 µM [inhibitor, single point]	
O=C(CCn1nc(-c2ccccc2)ccc1=O)N1CCN(c2ccccc2)CC1	inconclusive: 11.2 µM [inhibitor, partial curve]	
S=C1SCN(Cc2ccccc2)CN1Cc1ccco1		inactive: -20.4%
COc1ccc(Nc2nc(N3CCCC3)nc3ccccc23)c(OC)c1	inconclusive: 15.8 µM [inhibitor, partial curve, poor fit]	
COC(=O)CSc1nnc(COc2ccc([N+](=O)[O-])cc2)n1C		inactive: -21.7%
COc1cccc(-c2nc(SCC(=O)NCC3CCCO3)c(-c3ccc(F)cc3)[nH]2)c1 (stereo not given)	inconclusive: 10 µM [inhibitor, full curve, poor fit]	
CCCc1cc(=O)oc2cc(C)c3c(-c4cccc(OC)c4)coc3c12	inconclusive: 39.8 µM [inhibitor, single point]	
CN1N=C2c3ccccc3CCC2C1c1ccc(Cl)cc1 (stereo not given)	inconclusive: 3.55 µM [inhibitor, full curve]	
CC(C)(C)C1CCc2c(sc(NC(=O)CCC(=O)O)c2C(=O)Nc2ccccc2C(F)(F)F)C1 (stereo not given)	inconclusive: 35.5 µM [inhibitor, single point]	
Cc1ccccc1C(=O)Nc1ccc2nc(Nc3cccc(C(F)(F)F)c3)cc(C)c2c1		inactive: -16.5%

Structure (SMILES)	Potency	activity change, negative = inhibition
O=C(Cc1ccc(F)cc1)NCc1nc2cccnc2n1Cc1ccc(F)cc1		inactive: -0.0487%
CC(NS(=O)(=O)OCC(Cl)(Cl)Cl)c1ccc(Br)cc1 (stereo not given)	inconclusive: 7.94 µM [inhibitor, partial curve, poor fit]	
COCCCNc1ncnc2sc3c(c12)CCC(C)C3 (stereo not given)		inactive: 0.991%
CCC(CC)Nc1ccc(C(CC(N)=O)NC(=O)Cc2ccc(Br)cc2)cc1[N+](=O)[O-] (stereo not given)	inconclusive: 44.7 µM [inhibitor, partial curve, poor fit]	
CCN(c1ccc(OC)cc1)S(=O)(=O)c1nnc(NC(=O)c2ccccc2C)s1	inconclusive: 15.8 µM [inhibitor, partial curve, poor fit]	
CC1=CN2C(=N)/C(=C/c3ccc(Sc4ccc(C)cc4)o3)C(=O)N=C2S1	inconclusive: 35.5 µM [inhibitor, single point]	
Cn1cc(/C=C(\C#N)C(=O)Nc2ncc(Cc3ccc(Cl)cc3)s2)c2ccccc21	inconclusive: 39.8 µM [inhibitor, partial curve, poor fit]	
O=C(O)c1cc(-c2ccco2)nc2ccc(Br)cc12	inconclusive: 39.8 µM [inhibitor, single point]	
CCc1ccc(NC(=O)Cn2ncc3c(C)n(Cc4cccc(Cl)c4)c(C)c3c2=O)cc1	inconclusive: 8.91 µM [inhibitor, single point]	
COc1ccc(O)c(/C=N/NC(=O)c2ccc(N3CCCC3=O)cc2)c1		inactive: -23.9%
CC(C)(C)C(=O)Nc1cc2nn(-c3ccccc3)nc2cc1Cl	inconclusive: 31.6 µM [inhibitor, partial curve]	
COC(=O)CCSc1cc([N+](=O)[O-])cc2c1c(C1OCCS1)nn2-c1ccccc1 (stereo not given)	inconclusive: 28.2 µM [inhibitor, single point]	
Cc1cc(-c2ccco2)n(CC(=O)NCCN(C)C)n1	inconclusive: 39.8 µM [inhibitor, single point]	
Cc1cccc(C(=O)NC(=S)NCc2ccccc2)c1		inactive: -22%
O=C(/C=C/c1ccc(O)c(O)c1)c1ccccc1O		inactive: -18.9%
C=CC[C@H](CC(=O)N(CCO)Cc1ccccc1)C(=O)N[C@H](COC(=O)[C@H](CC=C)CC(=O)OC(C)(C)C)Cc1ccccc1	inconclusive: 63.1 µM [inhibitor, partial curve, poor fit]	
COc1ccc(Cl)cc1NC(=O)COC(=O)Cc1cc(OC)c(OC)c(OC)c1	inconclusive: 50.1 µM [inhibitor, single point]	
CCCCNC(=S)NCc1ccc2[nH]c(C)cc2c1		inactive: -18.5%
Cc1cccc(-n2ccnc2SCC(=O)Nc2nc3ccccc3s2)c1	inconclusive: 44.7 µM [inhibitor, partial curve, poor fit]	
Oc1c(Br)cc(Br)cc1C=Nc1ccc2[nH]ncc2c1	inconclusive: 28.2 µM [inhibitor, partial curve]	
O=C(NNC(=S)NC1CCCCC1)c1cccc(S(=O)(=O)Nc2ccccc2Cl)c1	inconclusive: 50.1 µM [inhibitor, partial curve, poor fit]	
